# Results published in the supplement of paper PMC6289059.
# Some of the results follow. Single values are uncertain, as repeats are few or missing.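 The assay uses human stem cell-derived hepatocyte-like cells whose DGUOK gene was disrupted by CRISPR, modeling liver mtDNA depletion syndrome. ATP signals were scored within each plate, and any drug with a score of at least 3 was called a primary hit.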
# Test system: DGUOK Δ14/Δ5 iPSC-derived hepatocyte-like cells (SV20)
# Assay: ATP level (CellTiter-Glo luminescence) Z score relative to plate distribution, under 2-DG glycolysis block; higher = more cellular ATP (rescue of mitochondrial ATP production)
# Conditions: 5 µM; treatment time: day 15 to day 20 of differentiation (5 days); 2-deoxy-D-glucose: 20 mM for 24 h before assay
row,Structure (SMILES),ATP level
1,CC1=C(/C=C/C(C)=C/C=C/C(C)=C\C(=O)O)C(C)(C)CCC1,inactive: -14.8
2,CC/C(=C(/CC)c1ccc(O)cc1)c1ccc(O)cc1,inactive: -1.39
3,COc1cc(O)c2c(=O)c(O)c(-c3ccccc3)oc2c1,inactive: -0.783
4,CSc1ccc2c(c1)N(CCC1CCCCN1C)c1ccccc1S2 (stereo not drawn),inactive: -12.6
5,NC(N)=Nc1nc(CSCC/C(N)=N/S(N)(=O)=O)cs1,inactive: 0.571
6,Cc1cc(-c2ccccc2)nnc1NCCN1CCOCC1,inactive: -0.362
7,COC1(C)CCC2OC2(C)CCC2C1CC2(C)C (stereo not drawn),inactive: 0.00805
8,CC(=O)NCCc1ccc(O)c(-c2c(O)c(O)c3c(c2O)C(=O)c2c(cc(O)c(C(=O)O)c2C(=O)O)C3=O)c1,inactive: -0.219
9,COc1cc(O)c2c(=O)cc(-c3ccc(O)cc3)oc2c1,inactive: 1.54
10,O=c1ccn([C@@H]2O[C@H](COP(=O)(O)OP(=O)(O)OP(=O)(O)O)[C@@H](O)[C@H]2O)c(=O)[nH]1,inactive: -0.468
11,Cc1nc(-c2ccc(OCC(C)C)c(C#N)c2)sc1C(=O)O,inactive: 2.05
12,CN(C)c1ccc(C(=C2C=CC(=[N+](C)C)C=C2)c2ccc(N(C)C)cc2)cc1,inactive: -12.1
13,CC(=O)[C@H]1CC[C@H]2[C@@H]3CC=C4C[C@@H](O)CC[C@]4(C)[C@H]3CC[C@]12C,inactive: -0.947
14,COc1ccc(CC2c3cc(OC)c(OC)cc3CC[N+]2(C)CCC(=O)OCCCCCOC(=O)CC[N+]2(C)CCc3cc(OC)c(OC)cc3C2Cc2ccc(OC)c(OC)c2)cc1OC (stereo not drawn),inactive: 1.42
15,CCN(CCO)CCCC(C)Nc1ccnc2cc(Cl)ccc12 (stereo not drawn),inactive: -3.64
16,CON,inactive: 1.62
17,CC1(C)[C@@H](O)CC[C@]2(C)[C@H]3C(=O)C=C4[C@H]5C[C@@](C)(C(=O)O)CC[C@]5(C)CC[C@@]4(C)[C@]3(C)CC[C@@H]12 [18alpha-GLYCYRRHETINIC ACID],inactive: -1.16
18,CCOC(=O)NNc1nncc2ccccc12,inactive: -6.5
19,CO/N=C1\C[C@]2(C[C@@H]3C[C@@H](C/C=C(\C)C[C@@H](C)/C=C/C=C4\CO[C@@H]5[C@H](O)C(C)=C[C@@H](C(=O)O3)[C@]45O)O2)O[C@H](/C(C)=C/C(C)C)[C@H]1C,inactive: 1.15
20,CCCCN1CCCCC1C(=O)Nc1c(C)cccc1C (stereo not drawn),inactive: 1.1
21,CC(=O)O[C@@H]1CC2C(C)(CC[C@H](O)C2(C)C)C2CC[C@]3(C)C(=CC(=O)O[C@H]3c3ccoc3)C21C (stereo partly drawn) [3beta-HYDROXYDEOXODIHYDRODEOXYGEDUNIN],inactive: -1.36
22,CC(=O)c1c(O)cc(O)cc1O,inactive: -1.77
23,CC[C@@H](C(=O)[C@@H](C)[C@@H](O)[C@H](C)CCc1ccc(C)c(O)c1C(=O)O)[C@H]1O[C@](CC)([C@H]2CC[C@](O)(CC)[C@H](C)O2)C[C@@H]1C,inactive: -36.8
24,O=c1c(-c2cc(O)c(O)c(O)c2)coc2cc(O)c(O)c(O)c12,inactive: 0.893
25,CC12CCCC(O)(C1)C1CC(C)(C)C1CC2 (stereo not drawn) [beta-CARYOPHYLLENE ALCOHOL],inactive: -1.76
26,Cc1cc(=O)oc2c(O)c(O)ccc12,active: 3.14
27,CC(COc1ccccc1)NC(C)C(O)c1ccc(O)cc1 (stereo not drawn),inactive: 1.74

# Two records picked at random from those above:
row,Structure (SMILES),ATP level
19,CO/N=C1\C[C@]2(C[C@@H]3C[C@@H](C/C=C(\C)C[C@@H](C)/C=C/C=C4\CO[C@@H]5[C@H](O)C(C)=C[C@@H](C(=O)O3)[C@]45O)O2)O[C@H](/C(C)=C/C(C)C)[C@H]1C,inactive: 1.15
1,CC1=C(/C=C/C(C)=C/C=C/C(C)=C\C(=O)O)C(C)(C)CCC1,inactive: -14.8

# Later entries.

row,Structure (SMILES),ATP level
1,Nc1ccc(S(=O)(=O)Nc2ccccn2)cc1,inactive: 0.0111
2,O=C(O)[C@H]1O[C@@H](Oc2cc3oc(-c4ccccc4)cc(=O)c3c(O)c2O)[C@H](O)[C@@H](O)[C@@H]1O,inactive: -0.0254
3,OC[C@H]1O[C@H](OCC2O[C@@H](O)[C@H](O)[C@@H](O)[C@@H]2O)[C@H](O)[C@@H](O)[C@H]1O (stereo partly drawn),inactive: -0.157
4,Nc1ccn([C@@H]2O[C@H](CO)[C@@H](O)[C@@H]2O)c(=O)n1,inactive: -1.54
5,O=c1[nH]c(=O)c2ccccc2o1,inactive: 2.3
6,COc1ccnc(C[S+]([O-])c2nc3cc(OC(F)F)ccc3[nH]2)c1OC (stereo not drawn),inactive: 0.781
7,O=C(O)[C@H](O)[C@@](O)(Cc1ccc(O)cc1)C(=O)O,inactive: 0.114
8,CC(=O)N[C@@H](C=O)[C@@H](O)[C@H](O)[C@H](O)CO,inactive: -1.61
9,C[C@@H]1C[C@H]2[C@@H]3C[C@H](F)C4=CC(=O)C=C[C@]4(C)[C@@]3(F)[C@@H](O)C[C@]2(C)[C@@]1(O)C(=O)COC(=O)C(C)(C)C,inactive: 1.39
10,O=C1C(=O)c2ccccc2C(O)=C1C1CCC(c2ccc(Cl)cc2)CC1 (stereo not drawn),inactive: 0.225
11,O=c1[nH]cnc2c1ncn2[C@@H]1O[C@H](CO)[C@@H](O)[C@H]1O,inactive: -0.333
12,CC(C)Cn1c(=O)n(C)c(=O)c2[nH]cnc21,inactive: 0.777
13,COc1cc([C@@H]2c3cc4c(cc3[C@@H](O[C@@H]3O[C@@H]5CO[C@@H](c6cccs6)O[C@H]5[C@H](O)[C@H]3O)[C@H]3COC(=O)[C@H]23)OCO4)cc(OC)c1O,active: 3.17
14,C/C(=C\CO)CC[C@H](C)CCC[C@H](C)CCCC(C)C,inactive: -1.06
15,NCCOB(c1ccccc1)c1ccccc1,inactive: -0.952
16,CC1(C)C=Cc2cc3ccc(=O)oc3cc2O1,inactive: 0.264
17,O=c1ccc2ccccc2o1,inactive: -6.23
18,CCOC(=O)c1c(C)cc(O)cc1O,inactive: 1.1
19,CN(C)CCCN1c2ccccc2Sc2ccc(Cl)cc21,inactive: -11.6
20,COc1ccc(C(=O)c2ccccc2O)c(O)c1,inactive: 0.096
21,CC(C)(C)NC[C@H](O)COc1ccccc1C1CCCC1,inactive: -0.525
22,Nc1nc2[nH]cc(CCc3ccc(C(=O)N[C@@H](CCC(=O)O)C(=O)O)cc3)c2c(=O)[nH]1,inactive: 0.529
23,COCCc1ccc(OCC(O)CNC(C)C)cc1 (stereo not drawn),inactive: 1.21
24,OCc1ccccn1,inactive: 0.367
25,CC(C)Cc1ccc(C(C)C(=O)O)cc1 (stereo not drawn),inactive: 0.147
26,COc1ccc(CN2CCN(C(c3ccc(F)cc3)c3ccc(F)cc3)CC2)c(OC)c1OC,inactive: -2.51
